Experimental data: PubChem BioAssay AID1259254 (NCATS, 2017)

Screen: 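Genome-wide screen for genes that prevent DNA re-replication in cancer cells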 (primary screen)
Cell system: human HCT116 colorectal cancer cells
Reagent: single siRNA against human genes
Time to read-out: 3 days
Read-out: 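Imaged Hoechst DNA stain sorts each cell into a cycle phase by DNA amount; per plate, G2 fraction set to 0% for non-targeting and 100% for GMNN siRNA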
Scale: G2 robust z-score and G2 cells, % of GMNN control: higher = more G2 cells, more excess DNA replication; raw share of cells in G2: higher = larger share of cells with G2 DNA content
Hit rule: 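An siRNA counts as active if its G2 robust z-score lies at least 5 MADs above the screen median; here such calls match roughly 38% of GMNN control or more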
The whole screen tested about 59,000 reagents; below is a random part of them. Of all reagents, about 1,550 (2.6%) are marked active. 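G2 share is only a proxy for re-replication; each gene was hit by three separate siRNAs, and active genes were retested.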 The raw values are shown without normalisation. A number with no mark means an inactive call. Reagents against one gene are numbered here. Not given: the amount of reagent.

G2 robust z-score | G2 cells, % of GMNN control | raw share of cells in G2 (%) | gene | reagent no.
-0.237 | 1.3 | 4.54 | PMFBP1 (polyamine modulated factor 1 binding protein 1) | 1
0.876 | 9.13 | 6.16 | PMFBP1 (polyamine modulated factor 1 binding protein 1) | 2
-0.604 | -1.28 | 2.02 | PMFBP1 (polyamine modulated factor 1 binding protein 1) | 3
-0.974 | -3.88 | 2.23 | UQCC4 (ubiquinol-cytochrome c reductase complex assembly factor 4) | 1
1.56 | 13.9 | 8.43 | UQCC4 (ubiquinol-cytochrome c reductase complex assembly factor 4) | 2
-0.519 | -0.687 | 3.06 | UQCC4 (ubiquinol-cytochrome c reductase complex assembly factor 4) | 3
0.37 | 5.57 | 5.98 | CLEC2D (C-type lectin domain family 2 member D) | 1
3.11 | 24.9 | 14 | CLEC2D (C-type lectin domain family 2 member D) | 2
-1.12 | -4.89 | 1.71 | CLEC2D (C-type lectin domain family 2 member D) | 3
0.354 | 5.46 | 6.4 | LACRT (lacritin) | 1
0.757 | 8.29 | 5.6 | LACRT (lacritin) | 2
2.41 | 19.9 | 9.24 | LACRT (lacritin) | 3
-0.314 | 0.757 | 4.98 | SEMA7A (semaphorin 7A (JohnMiltonHagen blood group)) | 1
-1.3 | -6.19 | 3.09 | SEMA7A (semaphorin 7A (JohnMiltonHagen blood group)) | 2
1.64 | 14.5 | 11.1 | SEMA7A (semaphorin 7A (JohnMiltonHagen blood group)) | 3
1.67 | 14.7 | 9.58 | PIGF (phosphatidylinositol glycan anchor biosynthesis class F) | 1
1.02 | 10.1 | 7.36 | PIGF (phosphatidylinositol glycan anchor biosynthesis class F) | 2
5.61 (active) | 42.4 | 16.3 | PIGF (phosphatidylinositol glycan anchor biosynthesis class F) | 3
0.656 | 7.58 | 8.2 | ST14 (ST14 transmembrane serine protease matriptase) | 1
-1.45 | -7.21 | 2.35 | ST14 (ST14 transmembrane serine protease matriptase) | 2
-0.311 | 0.781 | 4.2 | ST14 (ST14 transmembrane serine protease matriptase) | 3
0.209 | 4.44 | 5.19 | ZCCHC10 (zinc finger CCHC-type containing 10) | 1
0.572 | 6.99 | 7.22 | ZCCHC10 (zinc finger CCHC-type containing 10) | 2
0.00292 | 2.99 | 4.18 | ZCCHC10 (zinc finger CCHC-type containing 10) | 3
1.23 | 11.6 | 10.5 | CPXM2 (carboxypeptidase X, M14 family member 2) | 1
-0.461 | -0.274 | 4.39 | CPXM2 (carboxypeptidase X, M14 family member 2) | 2
1.05 | 10.4 | 8.12 | CPXM2 (carboxypeptidase X, M14 family member 2) | 3
-0.594 | -1.21 | 3.39 | PDZRN4 (PDZ domain containing ring finger 4) | 1
3.36 | 26.6 | 14.6 | PDZRN4 (PDZ domain containing ring finger 4) | 2
3.17 | 25.3 | 11.2 | PDZRN4 (PDZ domain containing ring finger 4) | 3
0.269 | 4.86 | 7 | GPD2 (glycerol-3-phosphate dehydrogenase 2) | 1
0.242 | 4.67 | 7.04 | GPD2 (glycerol-3-phosphate dehydrogenase 2) | 2
-1.01 | -4.12 | 2.19 | GPD2 (glycerol-3-phosphate dehydrogenase 2) | 3

Quoted from above (3 entries):
G2 robust z-score | G2 cells, % of GMNN control | raw share of cells in G2 (%) | gene | reagent no.
0.00292 | 2.99 | 4.18 | ZCCHC10 (zinc finger CCHC-type containing 10) | 3
1.23 | 11.6 | 10.5 | CPXM2 (carboxypeptidase X, M14 family member 2) | 1
-0.461 | -0.274 | 4.39 | CPXM2 (carboxypeptidase X, M14 family member 2) | 2

Further records:
G2 robust z-score | G2 cells, % of GMNN control | raw share of cells in G2 (%) | gene | reagent no.
-0.791 | -2.59 | 4.91 | AVPR1A (arginine vasopressin receptor 1A) | 1
-0.667 | -1.73 | 3.91 | AVPR1A (arginine vasopressin receptor 1A) | 2
1.29 | 12.1 | 6.97 | AVPR1A (arginine vasopressin receptor 1A) | 3
-0.494 | -0.505 | 3.46 | UNC80 (unc-80 subunit of NALCN channel complex) | 1
0.00869 | 3.03 | 4.22 | UNC80 (unc-80 subunit of NALCN channel complex) | 2
0.116 | 3.79 | 4.42 | UNC80 (unc-80 subunit of NALCN channel complex) | 3
-0.137 | 2 | 4.49 | PDE10A (phosphodiesterase 10A) | 1
2.02 | 17.2 | 13.2 | PDE10A (phosphodiesterase 10A) | 2
1.6 | 14.2 | 11.9 | PDE10A (phosphodiesterase 10A) | 3
3.25 | 25.9 | 15.1 | RPP14 (ribonuclease P/MRP subunit p14) | 1
1.93 | 16.5 | 11 | RPP14 (ribonuclease P/MRP subunit p14) | 2
1.24 | 11.7 | 7.55 | RPP14 (ribonuclease P/MRP subunit p14) | 3
0.598 | 7.18 | 7.52 | SEPTIN7 (septin 7) | 1
0.00559 | 3.01 | 6.09 | SEPTIN7 (septin 7) | 2
7.93 (active) | 58.8 | 24.3 | SEPTIN7 (septin 7) | 3
-1.01 | -4.15 | 2.43 | GLMP (glycosylated lysosomal membrane protein) | 1
-0.238 | 1.29 | 3.71 | GLMP (glycosylated lysosomal membrane protein) | 2
-0.598 | -1.24 | 1.46 | GLMP (glycosylated lysosomal membrane protein) | 3
-0.814 | -2.76 | 3.45 | LRRC75B (leucine rich repeat containing 75B) | 1
3.2 | 25.5 | 12.5 | LRRC75B (leucine rich repeat containing 75B) | 2
0.29 | 5.01 | 5.58 | LRRC75B (leucine rich repeat containing 75B) | 3
-0.0474 | 2.63 | 5.65 | PTPN20 (protein tyrosine phosphatase non-receptor type 20) | 1
-0.146 | 1.94 | 4.89 | PTPN20 (protein tyrosine phosphatase non-receptor type 20) | 2
0.0962 | 3.64 | 4.59 | PTPN20 (protein tyrosine phosphatase non-receptor type 20) | 3
-0.928 | -3.56 | 3.64 | PTPN20 (protein tyrosine phosphatase non-receptor type 20) | 4
-1.53 | -7.79 | 1.96 | PTPN20 (protein tyrosine phosphatase non-receptor type 20) | 5
-0.138 | 2 | 4.1 | PTPN20 (protein tyrosine phosphatase non-receptor type 20) | 6
-0.663 | -1.69 | 3.21 | HDGFL3 (HDGF like 3) | 1
1.26 | 11.9 | 9.04 | HDGFL3 (HDGF like 3) | 2
0.433 | 6.02 | 5.15 | HDGFL3 (HDGF like 3) | 3
-0.843 | -2.96 | 4.67 | STK35 (serine/threonine kinase 35) | 1
1.61 | 14.3 | 10.4 | STK35 (serine/threonine kinase 35) | 2
-0.945 | -3.68 | 2.5 | STK35 (serine/threonine kinase 35) | 3
0.701 | 7.9 | 6.11 | LOC644925 (retired record) | 1
-0.565 | -1.01 | 2.85 | LOC644925 (retired record) | 2
0.0929 | 3.62 | 5.02 | LOC644925 (retired record) | 3
